# Test results from the supplement of paper PMC6411743.
# ± gives the standard deviation of the averaged measurements. This is a selection; strong and weak results do not stand in their true shares.
# Legend:
# Assay in all cases: NP40-soluble protein abundance relative to vehicle (solubility fold change) (ratio); higher = more soluble protein in presence of AMP-PNP
# [1] = target: T1, H0YBI6 and related entries (UniProt Q86VQ6)
# T1 sequence (whole entry): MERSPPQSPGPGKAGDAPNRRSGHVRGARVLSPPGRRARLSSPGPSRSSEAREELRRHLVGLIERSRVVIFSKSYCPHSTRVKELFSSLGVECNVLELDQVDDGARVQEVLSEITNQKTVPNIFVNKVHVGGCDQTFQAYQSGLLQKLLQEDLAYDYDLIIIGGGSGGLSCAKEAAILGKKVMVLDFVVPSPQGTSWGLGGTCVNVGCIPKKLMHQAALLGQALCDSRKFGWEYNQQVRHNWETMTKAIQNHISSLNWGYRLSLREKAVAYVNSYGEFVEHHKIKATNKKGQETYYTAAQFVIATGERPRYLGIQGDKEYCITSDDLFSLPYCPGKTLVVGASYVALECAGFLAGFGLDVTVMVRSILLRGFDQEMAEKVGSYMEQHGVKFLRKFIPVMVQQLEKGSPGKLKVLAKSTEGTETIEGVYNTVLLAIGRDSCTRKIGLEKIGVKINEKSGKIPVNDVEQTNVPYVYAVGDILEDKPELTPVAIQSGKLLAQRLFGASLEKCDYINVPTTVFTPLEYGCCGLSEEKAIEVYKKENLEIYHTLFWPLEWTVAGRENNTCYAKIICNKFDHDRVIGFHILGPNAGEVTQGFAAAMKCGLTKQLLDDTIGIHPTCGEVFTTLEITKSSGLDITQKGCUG
# In short: (§1)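 Data come from three independent experiments in which Dounce-homogenised Jurkat crude lysate was treated at eight concentrations from 0.1 to 10 mM. Treatment ran 10 min at room temperature and then 3 min at 37 °C, after which 0.8% NP40 and benzonase were added for 60 min at 4 °C before ultracentrifugation. The supernatant underwent TMT labelling and LC-MS/MS, and vsn-normalised intensities were expressed as fold change against the detergent-processed vehicle in each replicate.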
# [2] = target: T2, H0YMI4 and related entries (UniProt Q9Y6I4)
# T2 sequence (whole entry): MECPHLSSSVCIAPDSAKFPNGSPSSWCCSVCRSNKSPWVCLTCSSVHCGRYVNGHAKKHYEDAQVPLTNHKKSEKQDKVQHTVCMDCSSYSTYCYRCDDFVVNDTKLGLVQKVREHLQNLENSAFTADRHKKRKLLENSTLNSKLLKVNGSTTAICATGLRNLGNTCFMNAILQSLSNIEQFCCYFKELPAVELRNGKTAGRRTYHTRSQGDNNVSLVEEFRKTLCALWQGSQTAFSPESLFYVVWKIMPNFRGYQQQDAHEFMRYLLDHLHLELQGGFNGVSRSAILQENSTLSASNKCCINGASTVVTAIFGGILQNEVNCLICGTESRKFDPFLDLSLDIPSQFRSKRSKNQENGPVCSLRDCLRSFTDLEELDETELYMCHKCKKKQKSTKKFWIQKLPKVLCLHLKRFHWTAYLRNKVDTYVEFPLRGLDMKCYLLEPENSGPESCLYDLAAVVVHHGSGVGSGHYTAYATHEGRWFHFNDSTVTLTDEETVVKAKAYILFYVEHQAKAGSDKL
# In short: as §1
# [3] = target: T3, H3BNT4 and related entries (UniProt Q99547)
# T3 sequence (whole entry): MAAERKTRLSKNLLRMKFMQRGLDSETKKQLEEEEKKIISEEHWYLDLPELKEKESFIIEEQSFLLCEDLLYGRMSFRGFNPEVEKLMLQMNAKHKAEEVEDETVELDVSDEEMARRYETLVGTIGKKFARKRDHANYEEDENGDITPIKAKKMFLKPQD
# In short: as §1
# [4] = target: T4, H7C3D5 and related entries (UniProt Q8NC44)
# T4 sequence (whole entry): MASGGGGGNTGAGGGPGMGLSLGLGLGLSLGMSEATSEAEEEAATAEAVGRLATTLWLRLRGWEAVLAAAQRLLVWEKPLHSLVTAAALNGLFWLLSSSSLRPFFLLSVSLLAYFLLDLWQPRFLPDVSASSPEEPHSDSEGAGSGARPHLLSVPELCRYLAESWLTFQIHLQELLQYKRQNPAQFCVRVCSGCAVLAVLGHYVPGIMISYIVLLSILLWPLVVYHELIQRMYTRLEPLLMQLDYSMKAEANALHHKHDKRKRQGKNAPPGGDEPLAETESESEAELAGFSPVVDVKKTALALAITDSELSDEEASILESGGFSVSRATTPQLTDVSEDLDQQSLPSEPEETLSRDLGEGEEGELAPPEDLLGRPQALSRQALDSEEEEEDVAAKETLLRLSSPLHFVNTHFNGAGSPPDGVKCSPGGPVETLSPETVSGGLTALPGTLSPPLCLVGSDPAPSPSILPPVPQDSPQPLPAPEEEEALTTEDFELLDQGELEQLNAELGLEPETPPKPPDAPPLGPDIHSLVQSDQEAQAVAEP
# In short: as §1
# [5] = target: T5, I3L1Q3 and related entries (UniProt Q8TE02)
# T5 sequence (whole entry): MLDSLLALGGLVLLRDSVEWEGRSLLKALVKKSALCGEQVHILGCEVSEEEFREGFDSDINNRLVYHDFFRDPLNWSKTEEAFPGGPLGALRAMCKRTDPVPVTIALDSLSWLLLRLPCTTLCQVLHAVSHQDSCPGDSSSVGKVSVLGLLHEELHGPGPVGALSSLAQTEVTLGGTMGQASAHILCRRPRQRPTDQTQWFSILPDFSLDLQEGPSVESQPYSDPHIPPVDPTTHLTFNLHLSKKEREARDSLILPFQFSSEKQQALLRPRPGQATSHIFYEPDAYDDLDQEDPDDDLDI
# In short: as §1
compound,measurement,setting,value
Nc1ncnc2c1ncn2[C@@H]1O[C@H](COP(=O)(O)OP(=O)(O)NP(=O)(O)O)[C@@H](O)[C@H]1O [adenylyl imidodiphosphate],NP40-soluble protein abundance,[1]; concentration: 2mM,0.993 ± 0.052
same,NP40-soluble protein abundance,[1]; concentration: 4mM,0.97 ± 0.044
same,NP40-soluble protein abundance,[1]; concentration: 6mM,0.961 ± 0.024
same,NP40-soluble protein abundance,[1]; concentration: 8mM,0.981 ± 0.041
same,NP40-soluble protein abundance,[1]; concentration: 10mM,0.954 ± 0.055
same,NP40-soluble protein abundance,[2]; concentration: 1mM,1.025 ± 0.0081
same,NP40-soluble protein abundance,[2]; concentration: 2mM,0.986 ± 0.1
same,NP40-soluble protein abundance,[2]; concentration: 4mM,1.03 ± 0.02
same,NP40-soluble protein abundance,[2]; concentration: 6mM,1.01 ± 0.019
same,NP40-soluble protein abundance,[2]; concentration: 8mM,1.03 ± 0.021
same,NP40-soluble protein abundance,[2]; concentration: 10mM,1.01 ± 0.016
same,NP40-soluble protein abundance,[3]; concentration: 1mM,1.01 ± 0.024
same,NP40-soluble protein abundance,[3]; concentration: 2mM,1.09 ± 0.065
same,NP40-soluble protein abundance,[3]; concentration: 4mM,1.03 ± 0.039
same,NP40-soluble protein abundance,[3]; concentration: 6mM,1.04 ± 0.048
same,NP40-soluble protein abundance,[3]; concentration: 8mM,0.998 ± 0.06
same,NP40-soluble protein abundance,[3]; concentration: 10mM,1.02 ± 0.033
same,NP40-soluble protein abundance,[4]; concentration: 1mM,1.01 ± 0.037
same,NP40-soluble protein abundance,[4]; concentration: 2mM,0.99 ± 0.051
same,NP40-soluble protein abundance,[4]; concentration: 4mM,1.03 ± 0.03
same,NP40-soluble protein abundance,[4]; concentration: 6mM,0.985 ± 0.01
same,NP40-soluble protein abundance,[4]; concentration: 8mM,0.989 ± 0.029
same,NP40-soluble protein abundance,[4]; concentration: 10mM,0.989 ± 0.051
same,NP40-soluble protein abundance,[5]; concentration: 1mM,0.981 ± 0.052
same,NP40-soluble protein abundance,[5]; concentration: 2mM,0.968 ± 0.032
same,NP40-soluble protein abundance,[5]; concentration: 4mM,0.966 ± 0.062

# Rewritten bar-delimited: entries from further up.
compound | measurement | setting | value
Nc1ncnc2c1ncn2[C@@H]1O[C@H](COP(=O)(O)OP(=O)(O)NP(=O)(O)O)[C@@H](O)[C@H]1O [adenylyl imidodiphosphate] | NP40-soluble protein abundance | [4]; concentration: 8mM | 0.989 ± 0.029
same | NP40-soluble protein abundance | [4]; concentration: 10mM | 0.989 ± 0.051
